At least one compound was matched to its structure with a doubt left.
Legend:
[1] = Decomposition in D2O / buffers followed by NMR; assay type: physicochemical; conditions: preliminary data
Description: For decomposition experiments, buffers were made to the appropriate pH in a 9:1 mix of H2O:D2O. These solutions were added to the compound being assayed such that the buffer capacity was at least 10 fold the concentration of the compound. Some experiments used 5 mg compound in 0.5 mL of buffer (e.g., pH 5 acetate buffer at 25 degrees C.). These were immediately inserted into an NMR instrument and scans were taken at even time intervals to calculate the half-life of the compound based on integration.
To render the triazabutadiene water-soluble, methyl imidazole was alkylated with propane sultone to provide the Zwitterionic NHC precursor Compound 5a (see FIG. 6E). […] Compound 6a was highly colored, so its pH dependence was studied using UV/vis. The reactions were not only pH-, but also scan-frequency dependent. Upon finding this, the stability of Compound 6a was studied in D2O in the dark using NMR. Even in the dark it was unstable, but not in the diazonium-forming way. Both Compound 6b and a more hindered mesityl (Mes) substituted Compound 6c (see FIG. 6E) were synthesized to stabilize what was initially considered to be a rearrangement pathway that could be blocked by steric repulsion. […] Dissolution in 0.1 N NaOH rendered all compounds stable (e.g., no detectable degradation after 24 hours in the dark).
As mentioned above, Compound 6c was reasonably stable in pure D2O. Upon adjusting the pH to 5 with HCl, a rapid initial consumption of Compound 6c to Compound 7 (see FIG. 6E) and a benzenediazonium salt was noted. After this initial burst of reactivity, a slowing and apparent arresting of the reaction was noted. At this pH the hydronium was the limiting reagent. All future reactions were run in buffers with a buffer capacity sufficient to maintain a large excess of hydronium ions. The experiments were performed in 90:10 H2O:D2O buffered solutions to minimize considerations of pH vs. pD. The decomposition to diazonium salts and Compound 7 was measured as a function of pH in phosphate/citrate buffers from pH 4-7 and in a phosphate buffer from pH 6-8. […]

[2] = E/Z photoisomerization and thermal Z to E reversion; assay type: physicochemical

Row | SMILES | Rate of decomposition to the diazonium species ([1]; pH 5 phosphate/citrate buffer) | Rate of decomposition to the diazonium species ([1]; pH 6 phosphate/citrate buffer) | Rate of decomposition to the diazonium species ([1]; pH 7 phosphate/citrate buffer) | t1/2 of thermal isomerization ([2]; MeOD) | E:Z ratio after irradiation ([2]; four hours constant irradiation, acid-free DMSO) | Half-life of thermal reversion from Z to E ([2]; pure DMSO)
1 | COc1ccc(N=NN=c2n(CCCS(=O)(=O)[O-])ccn2-c2c(C)cc(C)cc2C)cc1.[K+] [Compound 6d] | 2e-05 M/s | 1e-05 M/s | 5.3e-06 M/s | – | – | –
2 | Cc1cc(C)c(-n2ccn(CCCS(=O)(=O)[O-])c2=NN=Nc2ccccc2)c(C)c1.[K+] [Compound A] | – | – | – | ~6.4 h | ~50:50 | on the order of days

Reference: patent US10472330B2, “Substituted triazenes protected from degradation by carboxylation of N1” (ARIZONA BOARD OF REGENTS ON BEHALF OF THE UNIVERSITY OF …, priority 2015, dated 2019)
